Assay results published in article PMC8786845.
These are yes or no findings as the source states them, for the method shown. In cells and extracts the contact can be indirect. Some binding calls cover weakened binding; strength is not graded here.

The chains behind the UniProt entries cited, without tags or fusion partners. Residues count along the entry.
UniProt P26951, residues 19-378: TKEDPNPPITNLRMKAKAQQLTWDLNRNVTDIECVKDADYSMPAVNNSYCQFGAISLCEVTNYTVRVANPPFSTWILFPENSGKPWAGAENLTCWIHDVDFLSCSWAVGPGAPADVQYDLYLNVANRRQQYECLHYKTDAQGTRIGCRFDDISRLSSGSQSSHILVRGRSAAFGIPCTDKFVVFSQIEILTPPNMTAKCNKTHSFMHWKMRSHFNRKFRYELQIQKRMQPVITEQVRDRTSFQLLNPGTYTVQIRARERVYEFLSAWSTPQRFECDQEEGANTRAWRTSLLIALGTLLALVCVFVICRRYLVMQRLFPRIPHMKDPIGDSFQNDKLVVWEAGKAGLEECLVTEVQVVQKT

Target: IL-3 receptor α (IL-3Rα), endogenous in TF-1 cells (human (endogenous in TF-1)) (UniProt P26951)
Assay: co-IP; endogenous co-IP from TF-1 lysates (cells starved overnight, untreated or IL-3 20 ng/mL for the indicated times); immunoprecipitated with anti-IL-3Rα or control mouse IgG, blotted with anti-MARCH3; NP-40 lysis buffer, washes with 500 mM NaCl

B1: MARCH3 (membrane-associated RING-CH-type finger 3), endogenous in TF-1 cells (enzyme, UniProt Q86UD3 1-253)
chain: MTTSRCSHLPEVLPDCTSSAAPVVKTVEDCGSLVNGQPQYVMQVSAKDGQLLSTVVRTLATQSPFNDRPMCRICHEGSSQEDLLSPCECTGTLGTIHRSCLEHWLSSSNTSYCELCHFRFAVERKPRPLVEWLRNPGPQHEKRTLFGDMVCFLFITPLATISGWLCLRGAVDHLHFSSRLEAVGLIALTVALFTIYLFWTLVSFRYHCRLYNEWRRTNQRVILLIPKSVNVPSNQPSLLGLHSVKRNSKETVV
binding: binds
